Assay results published in patent publication US20180289802A1.
These are yes or no findings as the source states them, for the method shown. Some entries that bind do so weakly or less than the wild type.

Protein sequences, listed by entry. Tags and fused reporters are not part of them. Lines headed by an entry give the natural chain unless they say otherwise; changes in a name come on top.
UniProt Q15116: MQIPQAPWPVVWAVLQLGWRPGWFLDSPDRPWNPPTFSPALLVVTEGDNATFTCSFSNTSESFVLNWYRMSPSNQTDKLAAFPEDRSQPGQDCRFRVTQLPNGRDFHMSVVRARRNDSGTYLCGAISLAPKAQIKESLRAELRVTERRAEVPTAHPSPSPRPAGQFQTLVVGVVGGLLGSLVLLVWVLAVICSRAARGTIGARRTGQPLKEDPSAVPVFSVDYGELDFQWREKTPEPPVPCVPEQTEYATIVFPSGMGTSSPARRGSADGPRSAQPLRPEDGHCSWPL

Assays:
[1] = target: human PD-1 extracellular domain (crystal structure construct) (human) (UniProt Q15116); experiment: crystal structure, 1.8 Å
[2] = target: human PD-1 extracellular domain (crystal structure construct) (human) (UniProt Q15116); experiment: crystal structure (figure legend)

binding [1]: binds
binding [2]: binds
B1: PD1AB-6 Fab (Fab, V domains shown)
VH: EVQLVQSGAEVKKPGATVKISCKASGFNIKDTYMHWVQQAPGKGLEWMGRIDPANGDRKYDPKFQGRVTITADTSTDTAYMELSSLRSEDTAVYYCARSGPVYYYGSSYVMDYWGQGTTVTVSS
VL: DIVMTQSPDSLAVSLGERATINCKSGQSVLYSSNQKNFLAWYQQKPGQPPKLLIYWASTRESGVPDRFSGSGSGTDFTLTISSLQAEDVAVYYCHQYLYSWTFGQGTKLEIKR
